{
  "sequences": {"note": "Protein sequences, listed by entry. Tags and fused reporters are not part of them.", "UniProt Q14781": "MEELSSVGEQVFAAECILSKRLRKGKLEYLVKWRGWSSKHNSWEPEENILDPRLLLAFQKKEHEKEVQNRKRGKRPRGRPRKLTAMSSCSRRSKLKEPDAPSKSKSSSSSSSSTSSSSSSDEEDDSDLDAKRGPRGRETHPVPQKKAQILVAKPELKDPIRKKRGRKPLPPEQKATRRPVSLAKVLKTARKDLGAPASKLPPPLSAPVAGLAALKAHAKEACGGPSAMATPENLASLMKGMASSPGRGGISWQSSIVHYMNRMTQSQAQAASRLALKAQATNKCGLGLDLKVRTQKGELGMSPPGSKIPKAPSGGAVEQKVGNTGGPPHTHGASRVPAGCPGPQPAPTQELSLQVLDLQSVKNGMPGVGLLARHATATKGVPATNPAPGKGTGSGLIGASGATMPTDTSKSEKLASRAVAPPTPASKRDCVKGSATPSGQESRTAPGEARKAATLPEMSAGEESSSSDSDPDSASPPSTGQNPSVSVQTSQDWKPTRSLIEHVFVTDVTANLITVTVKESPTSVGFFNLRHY"},
  "source": "paper PMC10687032",
  "about": "“Phosphorylation of USP27X by GSK3β maintains the stability and oncogenic functions of CBX2” (Cell Death & Disease, 2023)",
  "target": "T1, USP27X stably expressed in BT549 cells (human) (UniProt A6NNY8)",
  "T1 sequence": "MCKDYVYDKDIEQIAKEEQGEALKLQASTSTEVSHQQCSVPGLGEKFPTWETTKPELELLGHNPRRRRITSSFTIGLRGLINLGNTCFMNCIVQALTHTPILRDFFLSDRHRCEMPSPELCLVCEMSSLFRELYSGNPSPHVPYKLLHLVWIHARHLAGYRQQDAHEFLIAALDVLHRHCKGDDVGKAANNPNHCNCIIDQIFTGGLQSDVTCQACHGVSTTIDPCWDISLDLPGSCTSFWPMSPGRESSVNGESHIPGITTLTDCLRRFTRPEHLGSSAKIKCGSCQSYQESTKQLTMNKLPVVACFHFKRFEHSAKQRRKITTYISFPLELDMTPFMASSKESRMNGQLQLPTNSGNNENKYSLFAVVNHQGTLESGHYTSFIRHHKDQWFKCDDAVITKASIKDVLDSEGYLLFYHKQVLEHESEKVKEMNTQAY",
  "assay": "affinity purification with mass spectrometry; immunoprecipitates from BT549 cells stably expressing USP27X, gel bands digested with trypsin and analysed by mass spectrometry",
  "note": "These are yes or no findings as the source states them, for the method shown. In cells and extracts the contact can be indirect. Here binding means that the protein was enriched with, or labelled near, the bait; the list need not be complete.",
  "data": [
    {"substance": "endogenous CBX2 (from UniProt Q14781 1-532)", "values": [
      {"measurement": "binding", "result": "binds"}
    ]}
  ]
}
